Laboratory results reported in the supplement of paper PMC10060354, “Discovery of a small molecule ligand of FRS2 that inhibits invasion and tumor growth” (Cellular Oncology, 2022).

Chains of the proteins cited; added tags and fusions are not shown. Lines headed by an entry give the natural chain unless they say otherwise; changes in a name come on top.
UniProt Q58FF7, whole entry: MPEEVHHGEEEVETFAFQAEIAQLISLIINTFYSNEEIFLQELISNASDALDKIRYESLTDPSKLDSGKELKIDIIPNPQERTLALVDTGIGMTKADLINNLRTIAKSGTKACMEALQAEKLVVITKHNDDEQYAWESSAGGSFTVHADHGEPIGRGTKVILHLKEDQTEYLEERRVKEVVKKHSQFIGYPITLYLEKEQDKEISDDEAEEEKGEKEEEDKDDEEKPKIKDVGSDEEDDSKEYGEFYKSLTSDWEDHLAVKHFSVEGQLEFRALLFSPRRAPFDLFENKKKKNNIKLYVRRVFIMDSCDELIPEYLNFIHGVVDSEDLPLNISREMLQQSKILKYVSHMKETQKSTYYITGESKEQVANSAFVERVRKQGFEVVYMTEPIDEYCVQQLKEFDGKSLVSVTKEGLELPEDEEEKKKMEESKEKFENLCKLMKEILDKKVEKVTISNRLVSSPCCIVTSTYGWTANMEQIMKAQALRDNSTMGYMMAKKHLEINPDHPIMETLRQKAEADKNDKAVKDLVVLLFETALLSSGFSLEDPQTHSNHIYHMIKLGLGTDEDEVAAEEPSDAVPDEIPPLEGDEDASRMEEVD
UniProt Q8N5C7: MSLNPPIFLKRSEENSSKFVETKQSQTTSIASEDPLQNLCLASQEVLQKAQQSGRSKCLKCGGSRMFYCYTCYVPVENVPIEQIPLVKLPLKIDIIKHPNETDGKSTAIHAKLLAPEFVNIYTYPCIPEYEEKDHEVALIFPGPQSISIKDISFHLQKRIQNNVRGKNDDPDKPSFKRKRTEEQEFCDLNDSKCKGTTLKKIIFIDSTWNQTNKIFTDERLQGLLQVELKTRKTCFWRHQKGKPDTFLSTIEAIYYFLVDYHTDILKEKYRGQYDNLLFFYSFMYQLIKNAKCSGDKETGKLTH
UniProt Q5SQI0: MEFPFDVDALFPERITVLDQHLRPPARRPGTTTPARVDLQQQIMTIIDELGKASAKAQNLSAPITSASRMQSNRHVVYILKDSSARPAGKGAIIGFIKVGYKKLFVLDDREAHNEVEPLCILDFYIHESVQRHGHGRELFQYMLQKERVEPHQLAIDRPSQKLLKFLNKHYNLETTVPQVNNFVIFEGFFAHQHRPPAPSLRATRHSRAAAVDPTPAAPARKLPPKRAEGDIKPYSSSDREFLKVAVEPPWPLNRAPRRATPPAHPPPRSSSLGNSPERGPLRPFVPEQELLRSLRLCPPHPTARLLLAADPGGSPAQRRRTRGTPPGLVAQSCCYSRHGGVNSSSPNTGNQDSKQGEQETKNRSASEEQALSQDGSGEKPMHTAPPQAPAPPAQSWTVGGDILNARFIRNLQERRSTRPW
UniProt Q8N370, whole entry, looked up: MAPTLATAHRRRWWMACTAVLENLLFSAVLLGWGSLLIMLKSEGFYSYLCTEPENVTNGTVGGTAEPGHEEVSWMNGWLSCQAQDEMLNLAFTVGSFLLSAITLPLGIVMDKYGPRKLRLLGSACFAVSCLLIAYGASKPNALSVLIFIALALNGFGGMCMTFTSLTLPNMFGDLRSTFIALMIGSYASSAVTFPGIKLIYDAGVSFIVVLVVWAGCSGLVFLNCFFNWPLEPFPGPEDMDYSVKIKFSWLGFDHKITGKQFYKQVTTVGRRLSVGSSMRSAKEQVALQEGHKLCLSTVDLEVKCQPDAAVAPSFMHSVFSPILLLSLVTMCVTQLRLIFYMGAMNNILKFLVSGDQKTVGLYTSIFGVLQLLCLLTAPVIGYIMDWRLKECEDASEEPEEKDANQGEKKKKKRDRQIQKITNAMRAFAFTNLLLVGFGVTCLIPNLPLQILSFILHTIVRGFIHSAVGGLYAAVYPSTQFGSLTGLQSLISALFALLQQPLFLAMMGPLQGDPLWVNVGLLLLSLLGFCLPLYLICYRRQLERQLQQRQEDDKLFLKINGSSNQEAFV
UniProt P13995: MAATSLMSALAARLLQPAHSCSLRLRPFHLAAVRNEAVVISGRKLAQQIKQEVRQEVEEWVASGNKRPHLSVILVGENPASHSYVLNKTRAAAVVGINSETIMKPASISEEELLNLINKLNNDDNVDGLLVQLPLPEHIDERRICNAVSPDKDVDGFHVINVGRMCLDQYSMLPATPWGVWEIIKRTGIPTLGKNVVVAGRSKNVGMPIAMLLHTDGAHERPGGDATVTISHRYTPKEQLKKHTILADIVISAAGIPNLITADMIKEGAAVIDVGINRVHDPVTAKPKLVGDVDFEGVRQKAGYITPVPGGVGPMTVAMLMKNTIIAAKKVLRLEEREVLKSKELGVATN
UniProt Q6PK04: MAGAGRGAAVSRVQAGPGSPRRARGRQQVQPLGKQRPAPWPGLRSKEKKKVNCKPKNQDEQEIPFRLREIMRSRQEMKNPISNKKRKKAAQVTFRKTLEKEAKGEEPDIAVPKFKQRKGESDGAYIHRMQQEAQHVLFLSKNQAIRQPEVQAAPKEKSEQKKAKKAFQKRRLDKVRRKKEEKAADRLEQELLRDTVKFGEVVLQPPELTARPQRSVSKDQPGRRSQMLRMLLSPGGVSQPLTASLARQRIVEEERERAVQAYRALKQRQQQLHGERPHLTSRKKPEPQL
UniProt Q9Y6G5, whole entry: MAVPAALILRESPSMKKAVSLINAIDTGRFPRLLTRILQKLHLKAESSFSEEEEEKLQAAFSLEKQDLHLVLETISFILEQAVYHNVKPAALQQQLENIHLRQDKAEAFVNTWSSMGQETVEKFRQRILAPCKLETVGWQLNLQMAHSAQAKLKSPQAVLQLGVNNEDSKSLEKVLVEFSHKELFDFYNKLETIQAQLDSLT
UniProt P46108: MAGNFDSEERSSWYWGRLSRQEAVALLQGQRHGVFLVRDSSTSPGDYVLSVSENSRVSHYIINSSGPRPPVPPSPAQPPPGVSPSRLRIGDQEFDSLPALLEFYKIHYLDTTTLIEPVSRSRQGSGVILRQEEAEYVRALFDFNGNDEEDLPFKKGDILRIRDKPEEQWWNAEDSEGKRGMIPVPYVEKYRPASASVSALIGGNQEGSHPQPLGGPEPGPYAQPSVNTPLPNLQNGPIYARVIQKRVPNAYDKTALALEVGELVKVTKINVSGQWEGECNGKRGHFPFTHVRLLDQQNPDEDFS
UniProt Q58FF6, whole entry: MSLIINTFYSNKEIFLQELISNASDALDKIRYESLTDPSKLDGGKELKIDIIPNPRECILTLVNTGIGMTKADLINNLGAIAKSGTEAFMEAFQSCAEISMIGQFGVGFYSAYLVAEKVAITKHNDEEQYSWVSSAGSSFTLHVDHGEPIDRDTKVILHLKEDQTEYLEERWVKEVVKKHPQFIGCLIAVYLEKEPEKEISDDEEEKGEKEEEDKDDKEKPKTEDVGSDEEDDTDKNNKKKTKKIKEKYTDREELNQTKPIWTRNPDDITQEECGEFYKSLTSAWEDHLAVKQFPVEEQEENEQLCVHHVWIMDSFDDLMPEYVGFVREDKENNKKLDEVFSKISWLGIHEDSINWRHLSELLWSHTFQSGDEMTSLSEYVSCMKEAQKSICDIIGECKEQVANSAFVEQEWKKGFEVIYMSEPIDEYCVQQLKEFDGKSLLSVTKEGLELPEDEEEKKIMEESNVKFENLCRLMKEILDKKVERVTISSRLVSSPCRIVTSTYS
UniProt P61803: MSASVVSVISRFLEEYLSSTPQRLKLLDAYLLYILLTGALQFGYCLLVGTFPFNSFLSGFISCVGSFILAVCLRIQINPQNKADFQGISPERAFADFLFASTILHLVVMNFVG
UniProt P30046: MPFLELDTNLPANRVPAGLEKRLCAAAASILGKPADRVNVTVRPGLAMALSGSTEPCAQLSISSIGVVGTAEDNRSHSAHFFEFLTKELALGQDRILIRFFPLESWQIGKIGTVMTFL
UniProt O14618: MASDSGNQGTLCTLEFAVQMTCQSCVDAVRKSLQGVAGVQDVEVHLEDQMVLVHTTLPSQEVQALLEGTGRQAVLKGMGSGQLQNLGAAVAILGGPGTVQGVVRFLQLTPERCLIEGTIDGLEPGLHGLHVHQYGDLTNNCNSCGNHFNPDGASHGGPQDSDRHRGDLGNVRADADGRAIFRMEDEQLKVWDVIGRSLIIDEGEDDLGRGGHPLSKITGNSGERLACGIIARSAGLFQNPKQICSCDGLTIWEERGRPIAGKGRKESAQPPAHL
UniProt Q9ULR0: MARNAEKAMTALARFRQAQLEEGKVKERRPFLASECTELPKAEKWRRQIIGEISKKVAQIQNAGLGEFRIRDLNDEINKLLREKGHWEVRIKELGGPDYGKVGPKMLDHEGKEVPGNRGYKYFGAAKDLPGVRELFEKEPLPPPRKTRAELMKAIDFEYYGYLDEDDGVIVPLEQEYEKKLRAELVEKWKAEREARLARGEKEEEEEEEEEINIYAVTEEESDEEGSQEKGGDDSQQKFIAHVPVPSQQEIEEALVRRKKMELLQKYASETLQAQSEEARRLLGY
UniProt Q16877: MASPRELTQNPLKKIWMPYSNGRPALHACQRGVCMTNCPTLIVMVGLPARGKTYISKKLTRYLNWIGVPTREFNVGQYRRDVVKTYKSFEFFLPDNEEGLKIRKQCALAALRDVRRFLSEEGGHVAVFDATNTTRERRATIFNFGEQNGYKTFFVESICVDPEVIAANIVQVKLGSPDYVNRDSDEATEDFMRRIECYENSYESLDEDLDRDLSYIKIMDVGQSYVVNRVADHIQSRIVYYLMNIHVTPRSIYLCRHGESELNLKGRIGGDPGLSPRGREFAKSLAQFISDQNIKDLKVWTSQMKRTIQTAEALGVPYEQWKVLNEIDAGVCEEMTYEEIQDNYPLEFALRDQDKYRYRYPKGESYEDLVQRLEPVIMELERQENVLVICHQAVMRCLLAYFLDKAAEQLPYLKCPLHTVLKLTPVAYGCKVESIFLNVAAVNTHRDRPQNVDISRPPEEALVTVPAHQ
UniProt Q96GJ1: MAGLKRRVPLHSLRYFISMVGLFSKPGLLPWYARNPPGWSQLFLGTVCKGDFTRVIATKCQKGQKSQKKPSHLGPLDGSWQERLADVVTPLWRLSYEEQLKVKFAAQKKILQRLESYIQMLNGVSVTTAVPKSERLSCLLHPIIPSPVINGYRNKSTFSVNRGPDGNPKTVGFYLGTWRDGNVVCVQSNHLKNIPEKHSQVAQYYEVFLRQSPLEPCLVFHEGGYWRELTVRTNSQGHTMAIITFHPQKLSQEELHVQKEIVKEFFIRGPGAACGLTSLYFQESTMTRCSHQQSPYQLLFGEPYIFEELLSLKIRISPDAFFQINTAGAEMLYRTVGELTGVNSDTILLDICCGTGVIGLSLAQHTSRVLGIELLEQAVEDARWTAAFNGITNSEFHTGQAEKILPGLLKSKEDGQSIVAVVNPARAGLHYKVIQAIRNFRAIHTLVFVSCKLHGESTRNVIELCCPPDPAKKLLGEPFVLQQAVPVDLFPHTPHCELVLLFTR
UniProt O95671: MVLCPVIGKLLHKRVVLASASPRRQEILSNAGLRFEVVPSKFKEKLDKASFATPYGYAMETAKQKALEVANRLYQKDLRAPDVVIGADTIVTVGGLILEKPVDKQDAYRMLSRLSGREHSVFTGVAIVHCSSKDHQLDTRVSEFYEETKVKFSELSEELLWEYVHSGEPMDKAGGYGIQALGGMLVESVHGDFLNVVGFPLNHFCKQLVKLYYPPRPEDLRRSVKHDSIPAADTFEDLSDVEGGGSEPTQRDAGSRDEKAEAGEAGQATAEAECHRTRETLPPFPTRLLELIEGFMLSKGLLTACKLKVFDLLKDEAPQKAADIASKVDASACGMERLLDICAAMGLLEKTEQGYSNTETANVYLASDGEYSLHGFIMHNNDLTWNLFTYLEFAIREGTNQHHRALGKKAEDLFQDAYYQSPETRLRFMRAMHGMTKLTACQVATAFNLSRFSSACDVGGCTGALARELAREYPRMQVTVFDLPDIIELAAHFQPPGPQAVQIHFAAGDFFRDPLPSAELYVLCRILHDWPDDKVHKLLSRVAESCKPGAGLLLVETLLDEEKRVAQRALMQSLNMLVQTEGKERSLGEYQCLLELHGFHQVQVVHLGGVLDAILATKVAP
UniProt P61421, whole entry: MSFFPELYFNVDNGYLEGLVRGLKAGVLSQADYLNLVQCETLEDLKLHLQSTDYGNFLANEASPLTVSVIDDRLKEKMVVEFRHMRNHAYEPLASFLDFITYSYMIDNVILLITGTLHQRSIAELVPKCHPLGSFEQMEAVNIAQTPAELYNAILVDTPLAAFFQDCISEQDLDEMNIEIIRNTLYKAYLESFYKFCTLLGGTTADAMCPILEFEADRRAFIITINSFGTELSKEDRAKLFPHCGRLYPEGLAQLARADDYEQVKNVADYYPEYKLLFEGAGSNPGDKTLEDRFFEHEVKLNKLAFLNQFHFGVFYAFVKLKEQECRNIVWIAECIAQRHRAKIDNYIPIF
UniProt O43759: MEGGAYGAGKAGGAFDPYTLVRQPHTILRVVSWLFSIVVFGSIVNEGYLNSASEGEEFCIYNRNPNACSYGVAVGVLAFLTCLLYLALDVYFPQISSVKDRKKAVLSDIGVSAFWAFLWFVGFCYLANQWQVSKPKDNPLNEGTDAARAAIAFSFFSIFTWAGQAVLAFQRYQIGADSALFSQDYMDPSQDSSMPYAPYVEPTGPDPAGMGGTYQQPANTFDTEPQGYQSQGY

Compound: [O-][N+](C(C1=C(C(O)=C2)NC(C(C=C3)=CC=C3Cl)C4C1C=CC4)=C2Cl)=O
Assay: melting temperature shift (compound 7 minus DMSO); higher = compound stabilises the protein
Settings: 10 µM
Experimental: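 Thermal proteome profiling (TMT mass spectrometry) in intact DAOY medulloblastoma cells or DAOY lysates treated with 10 µM compound 7 or DMSO, heated at 10 temperatures from 40.5 to 73.8 °C for 3 min. Melting curves were fitted with the Bioconductor TPP package, and the melting point difference between compound and vehicle is reported per protein (single curve per condition).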

[1] = system: intact DAOY cells, treatment time: 90 min, 37 °C
[2] = system: DAOY cell lysate, treatment time: 20 min, 4 °C

Row | Target | melting temperature shift [1] [°C] | melting temperature shift [2] [°C]
1 | UniProt Q58FF7 | -0.393 | 
2 | NKIRAS1 (UniProt Q9NYS0) | -2.19 | -1.24
3 | TTC9C (UniProt Q8N5M4) | -0.149 | -1.01
4 | UniProt Q16777 | -1.11 | 
5 | NOB1 (UniProt Q9ULX3) | -0.484 | -1.41
6 | SCAMP1 (UniProt O15126) |  | 0.464
7 | UniProt P60763 | 0.454 | 
8 | INPP4A (UniProt Q96PE3) |  | -0.253
9 | TP53BP2 (UniProt Q13625) | -2.23 | -1.12
10 | DTWD1 (UniProt Q8N5C7) |  | 0.204
11 | UniProt Q5SQI0 |  | -2.51
12 | CDK5 (UniProt Q00535) | -0.932 | 0.617
13 | UniProt P09086 | -0.964 | 
14 | PGP (UniProt A6NDG6) | -0.738 | -2.23
15 | SCAF8 (UniProt Q9UPN6) | -0.924 | 0.431
16 | SLC43A2 (UniProt Q8N370) |  | 2.99
17 | MTHFD2 (UniProt P13995) | -1.03 | 1.27
18 | CCDC137 (UniProt Q6PK04) |  | 0.702
19 | HYOU1 (UniProt Q9Y4L1) | 0.567 | 1.11
20 | UniProt Q96HJ9 | -0.166 | 
21 | UniProt Q9H930 | -0.557 | 
22 | UniProt Q6P2I7 |  | -1.01

Row | Target | melting temperature shift [1] [°C] | melting temperature shift [2] [°C]
23 | EPHB2 (UniProt P29323) | -0.239 | 1.12
24 | ARHGEF18 (UniProt Q6ZSZ5) | 0.186 | -0.138
25 | COMMD10 (UniProt Q9Y6G5) | -0.011 | -0.0829
26 | UniProt Q15139 |  | 0.166
27 | CRK (UniProt P46108) | 0.00319 | -0.678
28 | PPIP5K1 (UniProt Q6PFW1) |  | -2.02
29 | MTOR (UniProt P42345) | 3.01 | -0.71
30 | FAM207A (UniProt Q9NSI2) | 0.991 | -0.333
31 | FTH1 (UniProt P02794) |  | 0.686
32 | UniProt Q8TEV9 |  | 0.431
33 | HSP90AB4P (UniProt Q58FF6) | 0.257 | -2.05
34 | DXO (UniProt O77932) | 0.663 | 
35 | TAP1 (UniProt Q03518) | -1.29 | 0.812
36 | CEP85 (UniProt Q6P2H3) | 0.29 | 1.11
37 | HMGCS1 (UniProt Q01581) | 0.223 | -0.249
38 | UniProt O15083 | -3.13 | 
39 | MCTS1 (UniProt Q9ULC4) | 1.22 | 0.116
40 | UniProt O95170 | 7.23 | 
41 | CMBL (UniProt Q96DG6) | -0.21 | -1.51
42 | NIFK (UniProt Q9BYG3) | -0.266 | 1.34
43 | C1QBP (UniProt Q07021) | -0.21 | 1.42
44 | UniProt Q71UM5 | -1.49 | 

Row | Target | melting temperature shift [1] [°C] | melting temperature shift [2] [°C]
45 | NSMCE4A (UniProt Q9NXX6) | -0.913 | 2.66
46 | UniProt Q6PKH6 | -0.613 | 
47 | UniProt P61803 | -0.654 | 1.34
48 | DDT (UniProt P30046) | -0.0656 | -1.25
49 | PCK2 (UniProt Q16822) | -2.84 | -1.61
50 | PRKAR2A (UniProt P13861) | -0.09 | -0.0812
51 | DOCK5 (UniProt Q9H7D0) | -0.985 | 0.108
52 | CCS (UniProt O14618) | -0.0197 | -3.08
53 | ISY1 (UniProt Q9ULR0) |  | 0.538
54 | UniProt Q16877 | 2.45 | 
55 | DHX57 (UniProt Q6P158) | 0.471 | -0.477
56 | IK (UniProt Q13123) | -0.568 | -0.0111
57 | UniProt P07737 | -0.243 | -0.333
58 | GOLM1 (UniProt Q8NBJ4) |  | 0.733
59 | UBTF (UniProt P17480) | 0.94 | 0.998
60 | COMMD3 (UniProt Q9UBI1) | 0.0424 | -0.0505
61 | UniProt Q14964 | -1.58 | 
62 | U2SURP (UniProt O15042) | -0.604 | 0.0278
63 | GADD45GIP1 (UniProt Q8TAE8) | -2.36 | -1.25
64 | NUP160 (UniProt Q12769) | -1.19 | -0.331
65 | EGFR (UniProt P00533) | -1.3 | 1.87
66 | DOHH (UniProt Q9BU89) | 2.81 | -1.29

Row | Target | melting temperature shift [1] [°C] | melting temperature shift [2] [°C]
67 | SLC33A1 (UniProt O00400) | -2.14 | 0.657
68 | DNM1L (UniProt O00429) | -0.915 | -0.654
69 | UniProt P23743 | -0.939 | 
70 | UniProt Q96GJ1 |  | -1.18
71 | TRIM16 (UniProt O95361) | 0.601 | -1.18
72 | PAK1 (UniProt Q13153) | -0.725 | 
73 | ASMTL (UniProt O95671) |  | -1.47
74 | RIC8A (UniProt Q9NPQ8) | -0.721 | -0.193
75 | TTLL12 (UniProt Q14166) | 0.202 | -1.1
76 | TRAPPC10 (UniProt P48553) | -2.25 | -1.28
77 | SACM1L (UniProt Q9NTJ5) | 0.141 | 0.151
78 | KIAA1524 (UniProt Q8TCG1) | 0.268 | -1.03
79 | UniProt P04637 | 3.43 | -1.73
80 | ROCK2 (UniProt O75116) | -0.25 | -0.0651
81 | UniProt P56559 | -1.3 | 
82 | USP33 (UniProt Q8TEY7) | 0.42 | 1.1
83 | DOK1 (UniProt Q99704) | -0.538 | -2.53
84 | GIT2 (UniProt Q14161) | -0.374 | -1.31
85 | ATP6V0D1 (UniProt P61421) | -0.299 | 1.31
86 | UniProt O43759 | 1.24 | 4.15
87 | RNPEP (UniProt Q9H4A4) | 0.17 | -0.432

Part of the list above in a different format:
UniProt Q58FF7
  melting temperature shift [1] [°C] = -0.393
NKIRAS1 (UniProt Q9NYS0)
  melting temperature shift [1] [°C] = -2.19; melting temperature shift [2] [°C] = -1.24
TTC9C (UniProt Q8N5M4)
  melting temperature shift [1] [°C] = -0.149; melting temperature shift [2] [°C] = -1.01

Single values are uncertain, as repeats are few or missing.
